First the molecules themselves.
T1: Myc-NAP07 (E. histolytica) (UniProt C4M608)
T1 sequence: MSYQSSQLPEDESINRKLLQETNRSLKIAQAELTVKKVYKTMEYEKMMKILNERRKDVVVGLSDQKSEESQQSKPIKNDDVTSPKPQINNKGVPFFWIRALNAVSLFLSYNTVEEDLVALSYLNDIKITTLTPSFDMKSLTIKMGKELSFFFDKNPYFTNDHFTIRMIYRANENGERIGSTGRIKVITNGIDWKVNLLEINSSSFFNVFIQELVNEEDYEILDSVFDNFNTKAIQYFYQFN

T2: Myc-NAP12 (E. histolytica) (UniProt C4M8H9)
T2 sequence: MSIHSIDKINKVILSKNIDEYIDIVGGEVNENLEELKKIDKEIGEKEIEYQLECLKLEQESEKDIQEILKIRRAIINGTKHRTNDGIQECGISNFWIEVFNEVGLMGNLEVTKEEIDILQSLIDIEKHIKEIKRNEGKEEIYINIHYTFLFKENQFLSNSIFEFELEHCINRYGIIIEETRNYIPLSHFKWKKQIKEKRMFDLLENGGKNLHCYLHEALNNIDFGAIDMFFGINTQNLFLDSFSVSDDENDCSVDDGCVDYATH

T3: Myc-EhAgo2-2 (E. histolytica) (UniProt C4LVV2)
T3 sequence: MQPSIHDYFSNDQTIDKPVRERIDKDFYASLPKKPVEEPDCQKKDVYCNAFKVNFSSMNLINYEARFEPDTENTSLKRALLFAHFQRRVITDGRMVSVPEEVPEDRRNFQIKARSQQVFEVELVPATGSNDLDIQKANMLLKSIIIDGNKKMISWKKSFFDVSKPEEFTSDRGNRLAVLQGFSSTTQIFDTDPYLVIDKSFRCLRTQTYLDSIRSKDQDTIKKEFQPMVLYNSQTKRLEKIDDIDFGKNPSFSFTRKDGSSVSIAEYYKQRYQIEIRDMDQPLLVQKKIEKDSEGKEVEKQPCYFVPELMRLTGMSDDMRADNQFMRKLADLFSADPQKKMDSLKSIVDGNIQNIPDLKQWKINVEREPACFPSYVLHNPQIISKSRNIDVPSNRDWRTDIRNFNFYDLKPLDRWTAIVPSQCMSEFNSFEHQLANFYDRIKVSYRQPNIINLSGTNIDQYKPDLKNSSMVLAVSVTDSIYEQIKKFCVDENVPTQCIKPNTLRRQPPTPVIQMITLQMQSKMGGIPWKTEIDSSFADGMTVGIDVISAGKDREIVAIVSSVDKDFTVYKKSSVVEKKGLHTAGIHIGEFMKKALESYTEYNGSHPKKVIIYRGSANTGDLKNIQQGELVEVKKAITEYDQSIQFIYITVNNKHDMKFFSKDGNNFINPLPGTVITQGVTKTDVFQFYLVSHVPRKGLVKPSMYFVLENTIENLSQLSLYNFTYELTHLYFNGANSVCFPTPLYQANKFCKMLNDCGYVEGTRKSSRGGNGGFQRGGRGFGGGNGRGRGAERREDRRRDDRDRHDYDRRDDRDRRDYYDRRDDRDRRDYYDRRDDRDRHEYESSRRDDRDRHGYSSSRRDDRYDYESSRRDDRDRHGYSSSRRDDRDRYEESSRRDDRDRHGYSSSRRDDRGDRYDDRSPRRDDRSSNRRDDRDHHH

B1: NAP12 (endogenous) (protein, UniProt C4M8H9 1-264)
chain: T2 sequence
B2: EhAgo2-2 (endogenous) (protein, UniProt C4LVV2 1-937)
chain: T3 sequence
B3: NAP07 (endogenous) (protein, UniProt C4M608 1-241)
chain: T1 sequence
B4: URE3-BP (upstream regulatory element 3-binding protein) (protein, UniProt C4MBE2 1-227)
chain: MQFGYPPMQPPVANFCLWNLQPIQGSWMGAACIYQMPPSVRNTWWFPLLNTIPLDQYTRIYQWFMGVDRDRSGTLEINELMMGQFPGGIRLSPQTALRMMRIFDTDFNGHISFYEFMAMYKFMELAYNLFVMNDRNRSGTLEPHEILPALQQLGFYINQRTSLLLHRLFARGMAFCDLNCWIAICAFAAQTRSAYQMIFMNPYYGPMKPFNPMEFGKFLDVVTSLLE
B5: RNase III domain protein (EHI_068740) (enzyme, UniProt C4LU64 1-256)
chain: MSSTTLHNAMQYTAFDVLSSILNLMKADPLYDLLQLNQAYSSQDQEYEKNEFYGDSYLEERASSLVLKFLRKYEQIPFEMYSGLRIHTVKNQTLGEIFDLLHLGDTKTFEKKKKGDLVESLIGGCVLLSQRENATLFLLFAHALIDYIFYHSSYIYFNANPPKLVKEEIITDIQNWFKDKLFYYRSSLEKYQTDPTNFYLEEQHVSVDLFDDKEEVDTNDIDYILSSSDPLDFGIPEPSFNMTTSPSWNSFVHPSQ
B6: DNA repair protein (EHI_114930) (protein, UniProt C4M7S7 1-764)
chain: MKRSCAPSQKKLLSQKPLHQPKQQEENQKKNPKVLLKVITQEKKKIDIIKVFKIMWAKNSPKKQKTFNDGFIVVNSNNIGLIHDEEDKVIGKVNNIMKEISPETIGGDSIILAGKVIEIEEEVPVEQYLSGKLFLHETAITITQPKFELKKTALGNGPIKKKKVSLYNKENPFAYCIDDKKEPAILIDPYIGKFLRPHQIEGVKFMYHCIMRGGECGCILADEMGLGKTLQTITLIWTVYKQCNIKKIVIVCPQSLIGNWEKEFKKWLGVERISVQTGSSDSSMKEKVNDFIRDYIPVLIISYEQVRSHVETLKKTKIGLIVCDEGHRIKNLMSKTNSSLKALGGSRHIILSGTPVQNGLEDFYSLIEFCSPGCLGTLSSFKRVFAIPIQKAQDGNASIEEIQLGTERAKELTNKLNDYVLRRTSQVNEKYLPDKTEIVLFIKPSYLQIKLYKIMLKELEKKKLDQCSALKYIQLFTKLCNHPSLISKYLTEEKISLNENDEKCIKGISLNEESSNKFNITIQFIKEILIKSKEKVVLVSNYTKTLDLFEIYFKQEEEYKQKKIFNYLRLDGKTSQKQRDIIVEKINDKSSNYNILLLSSKAGGVGLNLIGCSRLILFDPDWNPAKDKQAMARIWRDGQQKKAMIYRMLCTGTIEEKIYQRQLQKNQISESIIEEHLEMGKSLSVEQLMKIFELNTNTICDTHDLLQCDCCNGGYKTEEDTLHLIPKMKEEIKSIDPLISTIEGINKMVSMLFVNEFHNKQKMK

Results are given in words; binding and its absence hold for the method and conditions named. In cells and extracts the contact can be indirect. These calls come from enrichment with a bait or labelling near it, and not all partners need be listed. For part of these data: A no says only that the protein was not detected with the bait. Where a sequence is shown, tags or fusion partners need not be part of it.

The first test has as its target T1, Myc-NAP07 (E. histolytica). The test can be described thus: affinity purification with mass spectrometry; anti-c-Myc agarose IP from whole-cell lysate of E. histolytica lines overexpressing Myc-NAP07, Myc-NAP12, Myc-EBP-1, Myc-GNB2L1 or Myc-Tudor-like protein; LC-MS/MS in duplicate; hits in both replicates and exclusive against the Luc control.
In the case of B1, the binding result was “binds”.

Another test addresses T2, Myc-NAP12 (E. histolytica). The description is as above.
For B2, the binding result is “binds”. Still for that read-out and setting: as for B3, the entry is “binds”.

A further test concerns the target T3, Myc-EhAgo2-2 (E. histolytica). The test can be described thus: affinity purification with mass spectrometry; anti-c-Myc agarose IP from whole-cell lysate of E. histolytica lines overexpressing the Myc-tagged bait (EhAgo2-2 WT, its two mutants, EhRdRP1, EhRdRP2), 2 h at 4°C, six low-stringency washes; LC-MS/MS in triplicate; nonribosomal hits in at least 2 of 3 data sets, exclusive or ≥3-fold enriched against the Luc control.
Take B1: the binding result is reported as “binds”. In the case of B4, the binding entry is listed as “binds”.

As to B5, the binding entry was “no binding”. Turning to B6, the binding entry is listed as “binds”.

A further test shares this target. The description is as above. This is another data set of the same source.
Consider elongation factor 1-alpha 1, for which the binding result is on record as “binds”.

On to chaperonin 1, for which the binding entry is reported as “binds”. On the same count and under the same terms, then MIR domain, with “binds”; and Hsp70, with “binds”; and Hsp90, with “no binding”.

(Values after article PMC8546589.)
